From paper PMC5736936, “Xylopine Induces Oxidative Stress and Causes G2/M Phase Arrest, Triggering Caspase-Mediated Apoptosis by p53-Independent Pathway in HCT116 Cells” (Oxidative Medicine and Cellular Longevity, 2017)

Columns and labels:
Assay in all cases: Cytotoxic activity, alamarBlue assay, 72 h
Format in all cases: cell-based
[1] = system: K562 (human chronic myelogenous leukemia);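 note: SI is noncancer IC50 (MRC-5 or PBMC) divided by cancer cell IC50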
From the text: (§1) MCF7 (human breast carcinoma), HCT116 (human colon carcinoma), HepG2 (human hepatocellular carcinoma), SCC-9 (human oral squamous cell carcinoma), HSC-3 (human oral squamous cell carcinoma), HL-60 (human promyelocytic leukemia), K-562 (human chronic myelogenous leukemia), B16-F10 (murine melanoma), MRC-5 (human lung fibroblast), WT SV40 MEF (wild-type immortalized mouse embryonic fibroblast), and BAD KO SV40 MEF (BAD gene knockout immortalized mouse embryonic fibroblast) cell lines were obtained from the American Type Culture Collection (ATCC, Manassas, VA, USA). Cells were cultured in complete medium with appropriate supplements as recommended by ATCC. All cell lines were tested for mycoplasma using the Mycoplasma Stain Kit (Sigma-Aldrich) to validate the use of cells free from contamination. Primary cell culture of peripheral blood mononuclear cells (PBMC) was obtained by standard Ficoll density protocol. The Research Ethics Committee of the Oswaldo Cruz Foundation (Salvador, BA, Brazil) approved the experimental protocol (number 031019/2013). Cell viability was examined using trypan blue exclusion assay for all experiments.
(§2) Cell viability was quantified using the alamarBlue assay according to Ahmed et al.. Cells were inserted in 96-well plates for all experiments (7 × 10^4 cells/mL for adherent cells or 3 × 10^5 cells/mL for suspended cells in 100 μL of medium). After 24 h, xylopine was dissolved in dimethyl sulfoxide (DMSO) and added to each well and incubated for 72 h. […] Four (for cell lines) or 24 h (for PBMCs) before the end of incubation, 20 μL of a stock solution (0.312 mg/mL) of the alamarBlue (resazurin, Sigma-Aldrich Co., Saint Louis, MO, USA) was added to each well. Absorbance at 570 nm and 600 nm was measured using the SpectraMax 190 Microplate Reader (Molecular Devices, Sunnyvale, CA, USA), and the drug effect was quantified as the percentage of control absorbance.

[2] = system: HL-60 (human promyelocytic leukemia);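 note: SI is noncancer IC50 (MRC-5 or PBMC) divided by cancer cell IC50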
From the text: as §1, §2

[3] = system: HCT116 (human colon carcinoma);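 note: SI is noncancer IC50 (MRC-5 or PBMC) divided by cancer cell IC50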
From the text: as §1, §2

[4] = system: MCF7 (human breast carcinoma);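 note: SI is noncancer IC50 (MRC-5 or PBMC) divided by cancer cell IC50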
From the text: as §1, §2

[5] = system: B16-F10 (murine melanoma)
From the text: as §1, §2

[6] = system: HSC3 (human oral squamous cell carcinoma)
From the text: as §1, §2

[7] = system: HepG2 (human hepatocellular carcinoma)
From the text: as §1, §2

SMILES: O=C1[O][Pt]2([NH][C@@H]3CCCC[C@H]3[NH]2)[O]C1=O [OXA, oxaliplatin]
- Selectivity index ([1]; IC50(MRC5)/IC50(K-562)): 1.7
- Selectivity index ([1]; IC50(PBMC)/IC50(K-562)): 16.6
- Selectivity index ([2]; IC50(MRC5)/IC50(HL-60)): 3.8
- Selectivity index ([2]; IC50(PBMC)/IC50(HL-60)): 37.3
- Selectivity index ([3]; IC50(MRC5)/IC50(HCT116)): 0.4
- Selectivity index ([3]; IC50(PBMC)/IC50(HCT116)): 3.6
- Selectivity index ([4]; IC50(MRC5)/IC50(MCF7)): 0.3
- Selectivity index ([4]; IC50(PBMC)/IC50(MCF7)): 2.5
- Selectivity index ([5]; IC50(MRC5)/IC50(B16-F10)): 15
- Selectivity index ([5]; IC50(PBMC)/IC50(B16-F10)): 149
- Selectivity index ([6]; IC50(MRC5)/IC50(HSC-3)): 0.5
- Selectivity index ([6]; IC50(PBMC)/IC50(HSC-3)): 4.5
- Selectivity index ([7]; IC50(MRC5)/IC50(HepG2)): 1.5
- Selectivity index ([7]; IC50(PBMC)/IC50(HepG2)): 14.9
